Patent US20190248902A1

The chains behind the UniProt entries cited, without tags or fusion partners. Where a name states a change or a piece, a line headed by the entry shows the natural chain unless it says otherwise.
UniProt P07307: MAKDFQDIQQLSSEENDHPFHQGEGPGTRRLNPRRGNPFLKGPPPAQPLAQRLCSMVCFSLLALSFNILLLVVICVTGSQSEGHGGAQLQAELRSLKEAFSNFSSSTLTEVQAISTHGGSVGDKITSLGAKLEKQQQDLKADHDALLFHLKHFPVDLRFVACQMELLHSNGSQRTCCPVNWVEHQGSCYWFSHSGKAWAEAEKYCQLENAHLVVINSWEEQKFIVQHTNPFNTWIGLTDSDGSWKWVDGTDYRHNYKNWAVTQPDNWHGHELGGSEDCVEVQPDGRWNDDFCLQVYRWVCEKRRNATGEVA

Target: T1, huASGR-1 (64-291) ECD with C-terminal 6xHis tag (human) (UniProt P07306)
T1 sequence: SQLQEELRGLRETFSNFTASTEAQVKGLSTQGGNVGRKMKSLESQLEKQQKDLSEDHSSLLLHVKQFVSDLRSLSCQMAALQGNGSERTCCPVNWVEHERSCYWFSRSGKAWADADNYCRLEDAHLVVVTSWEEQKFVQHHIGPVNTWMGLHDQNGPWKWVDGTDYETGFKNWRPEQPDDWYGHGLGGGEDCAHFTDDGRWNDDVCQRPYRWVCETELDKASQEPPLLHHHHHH
Test: conditioned media pre-incubated together; co-purified on Ni-Excel through the His tag of ASGR-1, then SEC

Substance: huASGR-2 (61-287) ECD without 6xHis tag (from UniProt P07307) (receptor)
- binding: binds

No constants are given. Whether binding was seen depends on the method and setting. Binding seen in cells or lysates may run through a third protein. A result given as binding can be weak or reduced; the word gives no strength. Tags and fused reporters may be left off the sequences shown.
